This passage reports binding signal results from publication PMC7819943, “Rice protein-binding microarrays: a tool to detect cis-acting elements near promoter regions in rice”.

Sequences of proteins named here, by UniProt entry; tags and fusion partners are left off.
UniProt Q0JBA9, entry or part of it: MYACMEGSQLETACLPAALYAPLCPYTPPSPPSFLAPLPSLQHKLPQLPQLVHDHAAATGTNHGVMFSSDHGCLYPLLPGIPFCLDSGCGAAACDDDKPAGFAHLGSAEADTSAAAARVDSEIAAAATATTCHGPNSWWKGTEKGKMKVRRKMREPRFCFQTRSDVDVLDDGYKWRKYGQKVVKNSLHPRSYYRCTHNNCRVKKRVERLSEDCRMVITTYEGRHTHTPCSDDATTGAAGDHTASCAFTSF

The other results are listed elsewhere or left out.

The assay has as its target OsWRKY34 (Oryza sativa, UniProt Q0JBA9 1-250). Kind of assay: protein-binding microarray (RPBM); PBS, 2% BSA, 51.3 ng/ul salmon testes DNA, 50 uM zinc acetate, 200 nM TF, 25 C, 1 h; high values mean tight binding. The note with it: protein: recombinant; tags: N-terminal polyhistidine and DsRed monomer fusion (pET32a); label: CyDye5-dUTP incorporated in the synthesized complementary strand; 3' TTTTT single-stranded linker to array surface; dsDNA, one strand shown. The method in brief:
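Using Ni–NTA, transcription factors fused N-terminally to polyhistidine and DsRed were purified after expression in E. coli BL21-CodonPlus. These were incubated at 200 nM with a blocked, double-stranded custom Agilent array for 1 h at 25 °C in a buffer containing 50 µM zinc acetate, and the array was washed. The binding signal is per-feature fluorescence intensity (arbitrary units) on an Axon 4000B scanner.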
Take “TCCTTTTCTCGCCGCTCCTCCTTCCCCGCCCCGCCACCTCCGGAGTCACCTAGTGCAG”: the binding signal is 8090 fluorescence intensity (a.u.). Turning to “CATCCAATCCACACATATAGTTACCTCCTTTGCCTTTGGACGGAGTCACCTAGTGCAG”, the binding signal was 8150 fluorescence intensity (a.u.). For the sequence “CGGTTGCCATCTTCGTAAATAACCTCAACGACAGGGGTATCGGAGTCACCTAGTGCAG”, the binding signal was 8040 fluorescence intensity (a.u.). With “CTTTTCGTTTGATTAATCACAAGTCACTTTTTATGGTTTTCGGAGTCACCTAGTGCAG”, the binding signal is 9800 fluorescence intensity (a.u.). Regarding “TCTTCATGTATTTCATGCTTTCTTCTTCATGTATTGTTAGCGGAGTCACCTAGTGCAG”, the binding signal is 10600 fluorescence intensity (a.u.).

Take “CACACGATATGATGTTTCTACCTCTCATTGTCATGTATTCCGGAGTCACCTAGTGCAG”: the binding signal was 8920 fluorescence intensity (a.u.). As to “TGCATATCTGTAATTCTACTTCACCTCCAGGTTGTCGTCTCGGAGTCACCTAGTGCAG”, the binding signal was 9730 fluorescence intensity (a.u.). Turning to “CCCGCACACTATTGCAATCCGGAGGTTTTTACCTGTGTTCCGGAGTCACCTAGTGCAG”, the binding signal is 8880 fluorescence intensity (a.u.).

Take “GTTTATAATTAGTTTTTTTATTAGTGCCCGAACACCTCATCGGAGTCACCTAGTGCAG”: the binding signal was 8110 fluorescence intensity (a.u.).

In the case of “TAATTTCCGTCTCCCTTTATCACGTGAGTGAGTCGCGTCTCGGAGTCACCTAGTGCAG”, the binding signal was 8700 fluorescence intensity (a.u.). “CGACCAGAAAAATATCTCCTCCGCTTTTTGCGCTTTTTTTCGGAGTCACCTAGTGCAG”: the binding signal was 9690 fluorescence intensity (a.u.).

Regarding “GTCGCCTCCAAAAGCTTCTCTCATCAGTTTCTCTCACTCCCGGAGTCACCTAGTGCAG”, the binding signal was 9470 fluorescence intensity (a.u.).

On to “TCGATCGCTGCTGTAAGTTTGTAACATGTGCGTGTCCTGCCGGAGTCACCTAGTGCAG”, for which the binding signal was 12400 fluorescence intensity (a.u.). For “GTTGATTTTTGAAAAATTAACCTTTTTATGCATCTTTTGTCGGAGTCACCTAGTGCAG”, the binding signal is 9510 fluorescence intensity (a.u.). Turning to “TGTTTGTTACTTTGATTACGCTCTTGTTTTGTTTATGAAACGGAGTCACCTAGTGCAG”, the binding signal is 10900 fluorescence intensity (a.u.).

As to “CTATTGTTTTATGTGGTTTCTCTCTCATCAATTGGGTTGACGGAGTCACCTAGTGCAG”, the binding signal is 8830 fluorescence intensity (a.u.).

As for “CCCGAGTCGTCGACCTCTCCTCGTTCCTCACAACCACCGCCGGAGTCACCTAGTGCAG”, the binding signal is 11800 fluorescence intensity (a.u.). Take “CCACAGCGCGCACCGGTCTCCGCCTTCAATGCATCATCTTCGGAGTCACCTAGTGCAG”: the binding signal was 11700 fluorescence intensity (a.u.).

On to “GATTTCTGTGTTTTTCCTGTGGTCCAATCAAACGGTCATTCGGAGTCACCTAGTGCAG”, for which the binding signal is 12700 fluorescence intensity (a.u.).

As to “AATACTCCTTTCTTTTTCTGACTTATATTTTGTTACGGTTCGGAGTCACCTAGTGCAG”, the binding signal was 13600 fluorescence intensity (a.u.). For the sequence “GCTTCGCCGGCCGCCCCGCACTCGACGTCTTGCTCCGTTCCGGAGTCACCTAGTGCAG”, the binding signal was 8550 fluorescence intensity (a.u.). For “GACGCGTGCTTTTTTTTTTCTGCGTGGTGGTGTTGGTTGACGGAGTCACCTAGTGCAG” the value was 10900 fluorescence intensity (a.u.); for “ATCCCCGCTTCTGGACGAGTCAAGTTTGGTCAACGTCGGACGGAGTCACCTAGTGCAG”, 9190 fluorescence intensity (a.u.). In the case of “CTCCCGTTCGTCGTCTCCATGCCGCGCGTCCTGCAATCCGCGGAGTCACCTAGTGCAG”, the binding signal was 8390 fluorescence intensity (a.u.).

Regarding “AATGAAGATCACCTTTATTCGCCGTTCCAGTCACGGATTCCGGAGTCACCTAGTGCAG”, the binding signal was 9190 fluorescence intensity (a.u.). In the case of “CGTCCACTCCATCTCCGCCTCCAGTGGGTCATCATATCTCCGGAGTCACCTAGTGCAG”, the binding signal is 10300 fluorescence intensity (a.u.). Next, “TTAGGTAATATTCACCTCGATCGTTTGTATATTTTTGCCTCGGAGTCACCTAGTGCAG”: 8360 fluorescence intensity (a.u.); “ACCACCCTACCTAGCTTAGAATATTTACCATGCATTCTCTCGGAGTCACCTAGTGCAG”: 11100 fluorescence intensity (a.u.). In the case of “GCCCATTTATTGTTTTGTATTTGGTAGCTCTGTATAGCATCGGAGTCACCTAGTGCAG”, the binding signal is 8260 fluorescence intensity (a.u.). On to “ACTCTATGTGCTAATGTCATACCATCGTCAACACGATAGCCGGAGTCACCTAGTGCAG”, for which the binding signal is 8610 fluorescence intensity (a.u.). Next, “ACTTCCTCCGCCTCATTTTCCGCGCGTACGTTTCCCAAACCGGAGTCACCTAGTGCAG”: 9100 fluorescence intensity (a.u.); “ATTGTGATTTTGCGAGGGCTTTCGCTGTTCTTGATTCCAGCGGAGTCACCTAGTGCAG”: 8120 fluorescence intensity (a.u.). For “TCAGAGGGCCTTATATTGTATGTTATGTAGTGAGATTAAACGGAGTCACCTAGTGCAG”, the binding signal is 11400 fluorescence intensity (a.u.). In the case of “CCTCTTCTAATATTCCTTATTTTTTTTAATTTCGAATTTCCGGAGTCACCTAGTGCAG”, the binding signal was 10700 fluorescence intensity (a.u.). With “CATCCCCACCCTCGCCGTCGCCGCCGCCCACCTCACCGTCCGGAGTCACCTAGTGCAG”, the binding signal is 9850 fluorescence intensity (a.u.). On to “TTGCTCTTGAGTCATCATCTGATCATATTCAATTCTTTATCGGAGTCACCTAGTGCAG”, for which the binding signal was 8540 fluorescence intensity (a.u.). Take “ACGCGATACGTGTGCCGCGCGGATACATCATACAAGTCGCCGGAGTCACCTAGTGCAG”: the binding signal was 9050 fluorescence intensity (a.u.). For “TTATTCGGTTTGTCACCCTTCCCATTTCCTTCATACCAGTCGGAGTCACCTAGTGCAG”, the binding signal was 9100 fluorescence intensity (a.u.). Consider “GTCAGGTACCCGATCCTGCCGCTGCTCCATCATCCGCGATCGGAGTCACCTAGTGCAG”, for which the binding signal was 11000 fluorescence intensity (a.u.). For the sequence “ACACTATCATATATACTTCCGTCCCAAAACGTAGCTACCTCGGAGTCACCTAGTGCAG”, the binding signal is 8230 fluorescence intensity (a.u.). Consider “TCACTTCCTTCTTTTCTTTTCAGCCCAGCAAAAAGTCTACCGGAGTCACCTAGTGCAG”, for which the binding signal is 9150 fluorescence intensity (a.u.). For the sequence “CGTGTCGCACCACATCCAGCGTCCCACGGCCTACCACCGCCGGAGTCACCTAGTGCAG”, the binding signal is 8700 fluorescence intensity (a.u.). For the sequence “CATTTGTCTGACGTTGCCTGTCCAAGTTCATTGTCCTAAGCGGAGTCACCTAGTGCAG”, the binding signal was 10100 fluorescence intensity (a.u.).

Take “AGCACCTTATCTTGCTCATCTTTATTTCTAGTTTGAGGCACGGAGTCACCTAGTGCAG”: the binding signal is 8230 fluorescence intensity (a.u.). Regarding “AAGTACTTTAAGCACAACTTTTCGTTTTCTATATTTGCACCGGAGTCACCTAGTGCAG”, the binding signal was 8230 fluorescence intensity (a.u.). Next, “TCTCTGTCTCCGTATTGACCGTTCTTCTGCCTTGTCGGAACGGAGTCACCTAGTGCAG”: 9560 fluorescence intensity (a.u.); “GTGTCAGCGTATTTCACTCTTCTTAATTAGTTGCTTATAGCGGAGTCACCTAGTGCAG”: 9110 fluorescence intensity (a.u.); “AAAGTGACAGTTGAATTATTCTGTGCAATGCTTGTTTTCTCGGAGTCACCTAGTGCAG”: 10200 fluorescence intensity (a.u.). For “CATGAGTAGTGAAAGTGTTTTTGTTTGCCTGTCGTTGATACGGAGTCACCTAGTGCAG” the value was 9620 fluorescence intensity (a.u.); for “CGCCGTCATCGCCGCCGCCGCCGCCGCCGCCGCATTTGTACGGAGTCACCTAGTGCAG”, 8890 fluorescence intensity (a.u.); for “ACGACATTCGCTCACTCACGGCAGGCTATATCTATTTATCCGGAGTCACCTAGTGCAG”, 9740 fluorescence intensity (a.u.). Turning to “CACCATCGCTGCACACTTTTTCTCCTCCTCACTGTCACACCGGAGTCACCTAGTGCAG”, the binding signal is 9180 fluorescence intensity (a.u.). For “AAATCTGTTGCTAGCTGTATTATATTGTCTGTTTTCTCTTCGGAGTCACCTAGTGCAG”, the binding signal is 11900 fluorescence intensity (a.u.). For “TTACGACGGGTGAGCTATTTTAATCTTATTCTATTGTTATCGGAGTCACCTAGTGCAG”, the binding signal is 10500 fluorescence intensity (a.u.).
